Assay results reported in paper doi:10.1101/2022.05.12.491658.
Results are given in words; binding and its absence hold for the method and conditions named. A result given as binding can be weak or reduced; the word gives no strength.

Sequences of proteins named here, by UniProt entry; tags and fusion partners are left off. A change or cut given only in a name is not applied to a line headed by its entry.
UniProt O22607: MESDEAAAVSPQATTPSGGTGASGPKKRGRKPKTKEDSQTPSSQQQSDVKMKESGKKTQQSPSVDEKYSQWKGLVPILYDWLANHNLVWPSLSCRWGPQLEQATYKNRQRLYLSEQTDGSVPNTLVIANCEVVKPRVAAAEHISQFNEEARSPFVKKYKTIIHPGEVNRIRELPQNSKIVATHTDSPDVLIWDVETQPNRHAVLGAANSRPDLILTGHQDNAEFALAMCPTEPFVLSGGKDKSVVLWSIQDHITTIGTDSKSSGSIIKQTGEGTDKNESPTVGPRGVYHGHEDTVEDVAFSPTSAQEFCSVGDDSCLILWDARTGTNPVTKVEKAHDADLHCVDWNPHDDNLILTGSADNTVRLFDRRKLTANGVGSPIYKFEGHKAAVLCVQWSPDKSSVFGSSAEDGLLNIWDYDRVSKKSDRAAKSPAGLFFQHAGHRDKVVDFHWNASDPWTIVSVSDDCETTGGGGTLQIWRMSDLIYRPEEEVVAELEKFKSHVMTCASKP

T1: FLOWERING LOCUS D (FLD) (Arabidopsis thaliana) (UniProt Q9CAE3)
T1 sequence: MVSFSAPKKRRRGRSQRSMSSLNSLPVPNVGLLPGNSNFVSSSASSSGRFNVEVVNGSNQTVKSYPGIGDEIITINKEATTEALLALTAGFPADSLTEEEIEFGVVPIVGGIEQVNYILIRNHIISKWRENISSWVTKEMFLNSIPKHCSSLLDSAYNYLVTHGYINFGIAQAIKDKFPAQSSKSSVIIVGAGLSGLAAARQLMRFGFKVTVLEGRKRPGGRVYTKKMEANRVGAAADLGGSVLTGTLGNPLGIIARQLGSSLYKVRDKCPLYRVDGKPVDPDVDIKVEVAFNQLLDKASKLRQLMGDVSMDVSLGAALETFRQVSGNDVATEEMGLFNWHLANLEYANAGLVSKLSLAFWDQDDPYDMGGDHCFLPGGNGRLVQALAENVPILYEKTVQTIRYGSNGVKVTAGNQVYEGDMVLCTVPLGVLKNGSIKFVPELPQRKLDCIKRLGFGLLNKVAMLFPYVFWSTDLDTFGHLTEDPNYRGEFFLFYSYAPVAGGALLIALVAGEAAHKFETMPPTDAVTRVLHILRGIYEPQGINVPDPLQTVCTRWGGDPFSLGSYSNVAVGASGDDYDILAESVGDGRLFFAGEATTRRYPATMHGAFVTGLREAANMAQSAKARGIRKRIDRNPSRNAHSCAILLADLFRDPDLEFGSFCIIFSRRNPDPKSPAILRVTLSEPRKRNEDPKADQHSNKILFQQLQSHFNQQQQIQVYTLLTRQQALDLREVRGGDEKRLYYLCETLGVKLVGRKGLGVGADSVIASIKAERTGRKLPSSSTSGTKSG


Tests used:
[1] = target: T1, FLOWERING LOCUS D (FLD) (Arabidopsis thaliana); test: two-hybrid
[2] = target: FLOWERING LOCUS VE (FVE) (Arabidopsis thaliana) (UniProt O22607); test: two-hybrid

Row | binding [1] | binding [2] | Molecule
1 | binds | – | FLOWERING LOCUS VE (FVE) (from UniProt O22607)
2 | – | binds | LSD1-like 1 (LDL1) (protein, UniProt Q8VXV7 1-844) MSTETKETRPETKPEDLGTHTTVDVPGEEPLGELIADDVNEVVSDASATETDFSLSPSQSEQNIEEDGQNSLDDQSPLTELQPLPLPPPLPVEARISESLGEEESSDLVTEQQSQNPNAAEPGPRARKRRRRKRFFTEINANPAFSRNRRTSVGKEVDSEALIAMSVGFPVYSLTEEEIEANVVSIIGGKDQANYIVVRNHIIALWRSNVSNWLTRDHALESIRAEHKTLVDTAYNFLLEHGYINFGLAPVIKEAKLRSFDGVEPPNVVVVGAGLAGLVAARQLLSMGFRVLVLEGRDRPGGRVKTRKMKGGDGVEAMADVGGSVLTGINGNPLGVLARQLGLPLHKVRDICPLYLPNGELADASVDSKIEASFNKLLDRVCKLRQSMIEENKSVDVPLGEALETFRLVYGVAEDQQERMLLDWHLANLEYANATLLGNLSMAYWDQDDPYEMGGDHCFIPGGNEIFVHALAENLPIFYGSTVESIRYGSNGVLVYTGNKEFHCDMALCTVPLGVLKKGSIEFYPELPHKKKEAIQRLGFGLLNKVAMLFPCNFWGEEIDTFGRLTEDPSTRGEFFLFYSYSSVSGGPLLVALVAGDAAERFETLSPTDSVKRVLQILRGIYHPKGIVVPDPVQALCSRWGQDKFSYGSYSYVAVGSSGDDYDILAESVGDGRVFFAGEATNRQYPATMHGAFLSGMREAANILRVARRRASSSALNPNQICIDKEEEVDEEEDRCLDQLFETPDLTFGNFSVLFTPNSDEPESMSLLRVRIQMEKPESGLWLYGLVTRKQAIELGEMDGDELRNEYLREKLGLVPVERKSLSQEGESMISSLKAARLNRQIFD
